Reference: publication PMC10091876
These are yes or no findings as the source states them, for the method shown. In cells and extracts the contact can be indirect. A yes stands for co-enrichment or nearness to the bait. Other partners may have been found. Tags and fused reporters may be left off the sequences shown.

By UniProt entry, the sequences of proteins in these tests, tags left out.
UniProt Q9D8Y0: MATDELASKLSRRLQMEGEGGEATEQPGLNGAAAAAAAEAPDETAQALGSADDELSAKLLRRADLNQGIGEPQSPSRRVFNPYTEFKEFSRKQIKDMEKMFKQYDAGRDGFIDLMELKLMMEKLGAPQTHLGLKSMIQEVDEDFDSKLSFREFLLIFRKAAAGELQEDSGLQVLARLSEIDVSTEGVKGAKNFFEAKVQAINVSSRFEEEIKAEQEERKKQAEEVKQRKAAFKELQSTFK

Tests used:
[1] = target: T1, Flag-Calhm2 (calcium homeostasis modulator 2) (UniProt Q8VEC4); assay: affinity purification with mass spectrometry; Flag-Calhm2 immunoprecipitated (Flag) from lysates of BV2 cells overexpressing Calhm2, against BV2 control cells; silver staining, mass spectrometry
T1 sequence: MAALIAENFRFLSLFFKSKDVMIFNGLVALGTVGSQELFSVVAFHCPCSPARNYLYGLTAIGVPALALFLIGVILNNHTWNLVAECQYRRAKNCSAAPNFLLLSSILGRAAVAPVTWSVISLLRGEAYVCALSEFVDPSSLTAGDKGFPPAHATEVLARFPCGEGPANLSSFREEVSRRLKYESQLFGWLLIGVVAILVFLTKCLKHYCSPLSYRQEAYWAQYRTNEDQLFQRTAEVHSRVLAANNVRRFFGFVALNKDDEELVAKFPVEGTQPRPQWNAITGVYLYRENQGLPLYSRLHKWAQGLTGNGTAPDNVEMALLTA

[2] = target: T2, Calhm2-HA (HA tag at the C-terminus of the mouse Calhm2 gene, transgenic mice) (mouse) (UniProt Q8VEC4); assay: affinity purification with mass spectrometry; brain tissue of Calhm2 WT and Calhm2-HA mice lysed and immunoprecipitated; mass spectrometry; tissue lysis buffer 50 mM NaCl (pH 7.4), 1 mM EDTA, 1 mM EGTA, 0.05% Triton-100; protein G agarose beads, 4 °C
T2 sequence: T1 sequence

Row | binding [1] | binding [2] | Substance
1 | binds | – | EF-hand domain family member D2 (EFhd2) (from UniProt Q9D8Y0 1-240)
2 | binds | – | actin-related protein 2/3 complex subunit 1 B (Arpc1B) (from UniProt Q9WV32 1-372)
3 | – | binds | EF-hand domain family member D2 (EFhd2), mouse brain (from UniProt Q9D8Y0 1-240)
